{"sequences": {"note": "Chains of the proteins cited; added tags and fusions are not shown.", "UniProt Q8IWT6": "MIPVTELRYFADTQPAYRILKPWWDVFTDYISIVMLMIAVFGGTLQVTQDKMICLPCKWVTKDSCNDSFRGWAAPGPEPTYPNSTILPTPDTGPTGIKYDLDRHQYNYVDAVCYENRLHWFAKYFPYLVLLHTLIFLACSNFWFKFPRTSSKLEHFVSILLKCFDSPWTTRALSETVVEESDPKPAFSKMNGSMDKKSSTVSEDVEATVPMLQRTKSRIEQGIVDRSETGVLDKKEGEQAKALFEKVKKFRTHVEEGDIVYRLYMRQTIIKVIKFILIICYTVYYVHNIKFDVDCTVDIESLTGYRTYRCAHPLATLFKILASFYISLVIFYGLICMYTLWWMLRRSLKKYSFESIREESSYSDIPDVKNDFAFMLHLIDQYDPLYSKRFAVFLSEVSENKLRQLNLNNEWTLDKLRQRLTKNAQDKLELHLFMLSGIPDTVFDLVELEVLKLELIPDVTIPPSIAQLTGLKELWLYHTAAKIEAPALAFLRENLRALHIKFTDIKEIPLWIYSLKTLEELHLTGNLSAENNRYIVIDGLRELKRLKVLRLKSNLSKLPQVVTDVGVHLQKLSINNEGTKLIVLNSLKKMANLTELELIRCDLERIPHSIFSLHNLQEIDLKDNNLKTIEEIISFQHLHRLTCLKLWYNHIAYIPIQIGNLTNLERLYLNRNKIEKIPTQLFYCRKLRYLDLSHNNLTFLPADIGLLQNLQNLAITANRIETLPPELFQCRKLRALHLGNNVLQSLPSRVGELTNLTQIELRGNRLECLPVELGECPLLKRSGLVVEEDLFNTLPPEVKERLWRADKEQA"}, "source": "paper PMC11193767", "binders": {"B1": {"name": "Lethal(2) giant larvae protein homolog 1 (protein, UniProt Q15334 1-1064)", "chain": "MMKFRFRRQGADPQREKLKQELFAFNKTVEHGFPNQPSALAFDPELRIMAIGTRSGAVKIYGAPGVEFTGLHRDAATVTQMHFLTGQGRLLSLLDDSSLHLWEIVHHNGCAHLEEALSFQLPSRPGFDGASAPLSLTRVTVVLLVAASDIAALGTEGSSVFFLDVTTLTLLEGQTLAPGEVLRSVPDDYRCGKALGPVESLQGHLRDPTKILIGYSRGLLVIWNQASQCVDHIFLGNQQLESLCWGRDSSTVVSSHSDGSYAVWSVDAGSFPTLQPTVATTPYGPFPCKAINKILWRNCESGGHFIIFSGGMPRASYGDRHCVSVLRAETLVTLDFTSRIIDFFTVHSTRPEDEFDDPQALAVLLEEELVVLDLQTPGWPAVPAPYLAPLHSSAITCSAHVASVPAKLWARIVSAGEQQSPQPVSSALSWPITGGRNLAQEPSQRGLLLTGHEDGTVRFWDASGVALRPLYKLSTAGLFQTDCEHADSLAQAAEDDWPPFRKVGCFDPYSDDPRLGVQKVALCKYTAQMVVAGTAGQVLVLELSDVPVEQAVSVAIIDLLQDREGFTWKGHERLSPRTGPLPWPAGFQPRVLVQCLPPAAVTAVTLHTEWSLVAFGTSHGFGLFDYQRKSPVLARCTLHPNDSLAMEGPLSRVKSLKKSLRQSFRRIRKSRVSGKKRAANASSKLQEANAQLAEQACPHDVEMTPVQRRIEPRSADDSLSGVVRCLYFADTFLRDGAHHGPTMWAGTNSGSVFAYALEVPAAAVGGEKRPEQAVEAVLGKEVQLMHRAPVVAIAVLDGRGRPLPEPYEASRDLAQAPDMQGGHAVLIASEEQFKVFTLPKVSAKTKFKLTAHEGCRVRKVALATFASVACEDYAETCLACLTNLGDVHVFSVPGLRPQVHYSCIRKEDISGIASCVFTRHGQGFYLISPSEFERFSLSARNITEPLCSLDINWPRDATQASYRIRESPKLSQANGTPSILLAPQSLDGSPDPAHSMGPDTPEPPEAALSPMSIDSATSADTTLDTTGDVTVEDVKDFLGSSEESEKNLRNLAEDEAHACAILIK"}, "B2": {"name": "Gamma-adducin (protein, UniProt Q9UEY8-1 1-706)", "chain": "MSSDASQGVITTPPPPSMPHKERYFDRINENDPEYIRERNMSPDLRQDFNMMEQRKRVTQILQSPAFREDLECLIQEQMKKGHNPTGLLALQQIADYIMANSFSGFSSPPLSLGMVTPINDLPGADTSSYVKGEKLTRCKLASLYRLVDLFGWAHLANTYISVRISKEQDHIIIIPRGLSFSEATASNLVKVNIIGEVVDQGSTNLKIDHTGFSPHAAIYSTRPDVKCVIHIHTLATAAVSSMKCGILPISQESLLLGDVAYYDYQGSLEEQEERIQLQKVLGPSCKVLVLRNHGVVALGETLEEAFHYIFNVQLACEIQVQALAGAGGVDNLHVLDFQKYKAFTYTVAASGGGGVNMGSHQKWKVGEIEFEGLMRTLDNLGYRTGYAYRHPLIREKPRHKSDVEIPATVTAFSFEDDTVPLSPLKYMAQRQQREKTRWLNSPNTYMKVNVPEESRNGETSPRTKITWMKAEDSSKVSGGTPIKIEDPNQFVPLNTNPNEVLEKRNKIREQNRYDLKTAGPQSQLLAGIVVDKPPSTMQFEDDDHGPPAPPNPFSHLTEGELEEYKRTIERKQQGLEDAEQELLSDDASSVSQIQSQTQSPQNVPEKLEENHELFSKSFISMEVPVMVVNGKDDMHDVEDELAKRVSRLSTSTTIENIEITIKSPEKIEEVLSPEGSPSKSPSKKKKKFRTPSFLKKNKKKEKVEA"}, "B3": {"name": "Large subunit GTPase 1 homolog (protein, UniProt Q9H089 1-658)", "chain": "MGRRRAPAGGSLGRALMRHQTQRSRSHRHTDSWLHTSELNDGYDWGRLNLQSVTEQSSLDDFLATAELAGTEFVAEKLNIKFVPAEARTGLLSFEESQRIKKLHEENKQFLCIPRRPNWNQNTTPEELKQAEKDNFLEWRRQLVRLEEEQKLILTPFERNLDFWRQLWRVIERSDIVVQIVDARNPLLFRCEDLECYVKEMDANKENVILINKADLLTAEQRSAWAMYFEKEDVKVIFWSALAGAIPLNGDSEEEANRDDRQSNTTKFGHSSFDQAEISHSESEHLPARDSPSLSENPTTDEDDSEYEDCPEEEEDDWQTCSEEDGPKEEDCSQDWKESSTADSEARSRKTPQKRQIHNFSHLVSKQELLELFKELHTGRKVKDGQLTVGLVGYPNVGKSSTINTIMGNKKVSVSATPGHTKHFQTLYVEPGLCLCDCPGLVMPSFVSTKAEMTCSGILPIDQMRDHVPPVSLVCQNIPRHVLEATYGINIITPREDEDPHRPPTSEELLTAYGYMRGFMTAHGQPDQPRSARYILKDYVSGKLLYCHPPPGRDPVTFQHQHQRLLENKMNSDEIKMQLGRNKKAKQIENIVDKTFFHQENVRALTKGVQAVMGYKPGSGVVTASTASSENGAGKPWKKHGNRNKKEKSRRLYKHLDM"}, "B4": {"name": "Lipolysis-stimulated lipoprotein receptor (protein, UniProt Q86X29-1 1-649)", "chain": "MQQDGLGVGTRNGSGKGRSVHPSWPWCAPRPLRYFGRDARARRAQTAAMALLAGGLSRGLGSHPAAAGRDAVVFVWLLLSTWCTAPARAIQVTVSNPYHVVILFQPVTLPCTYQMTSTPTQPIVIWKYKSFCRDRIADAFSPASVDNQLNAQLAAGNPGYNPYVECQDSVRTVRVVATKQGNAVTLGDYYQGRRITITGNADLTFDQTAWGDSGVYYCSVVSAQDLQGNNEAYAELIVLGRTSGVAELLPGFQAGPIEDWLFVVVVCLAAFLIFLLLGICWCQCCPHTCCCYVRCPCCPDKCCCPEALYAAGKAATSGVPSIYAPSTYAHLSPAKTPPPPAMIPMGPAYNGYPGGYPGDVDRSSSAGGQGSYVPLLRDTDSSVASEVRSGYRIQASQQDDSMRVLYYMEKELANFDPSRPGPPSGRVERAMSEVTSLHEDDWRSRPSRGPALTPIRDEEWGGHSPRSPRGWDQEPAREQAGGGWRARRPRARSVDALDDLTPPSTAESGSRSPTSNGGRSRAYMPPRSRSRDDLYDQDDSRDFPRSRDPHYDDFRSRERPPADPRSHHHRTRDPRDNGSRSGDLPYDGRLLEEAVRKKGSEERRRPHKEEEEEAYYPPAPPPYSETDSQASRERRLKKNLALSRESLVV"}, "B5": {"name": "Nucleoporin NDC1 (protein, UniProt Q9BTX1-1 1-674)", "chain": "MATAVSRPCAGRSRDILWRVLGWRIVASIVWSVLFLPICTTVFIIFSRIDLFHPIQWLSDSFSDLYSSYVIFYFLLLSVVIIIISIFNVEFYAVVPSIPCSRLALIGKIIHPQQLMHSFIHAAMGMVMAWCAAVITQGQYSFLVVPCTGTNSFGSPAAQTCLNEYHLFFLLTGAFMGYSYSLLYFVNNMNYLPFPIIQQYKFLRFRRSLLLLVKHSCVESLFLVRNFCILYYFLGYIPKAWISTAMNLHIDEQVHRPLDTVSGLLNLSLLYHVWLCGVFLLTTWYVSWILFKIYATEAHVFPVQPPFAEGSDECLPKVLNSNPPPIIKYLALQDLMLLSQYSPSRRQEVFSLSQPGGHPHNWTAISRECLNLLNGMTQKLILYQEAAATNGRVSSSYPVEPKKLNSPEETAFQTPKSSQMPRPSVPPLVKTSLFSSKLSTPDVVSPFGTPFGSSVMNRMAGIFDVNTCYGSPQSPQLIRRGPRLWTSASDQQMTEFSNPSPSTSISAEGKTMRQPSVIYSWIQNKREQIKNFLSKRVLIMYFFSKHPEASIQAVFSDAQMHIWALEGLSHLVAASFTEDRFGVVQTTLPAILNTLLTLQEAVDKYFKLPHASSKPPRISGSLVDTSYKTLRFAFRASLKTAIYRITTTFGEHLNAVQASAEHQKRLQQFLEFKE"}, "B6": {"name": "Sterol-4-alpha-carboxylate 3-dehydrogenase, decarboxylating (protein, UniProt Q15738 1-373)", "chain": "MEPAVSEPMRDQVARTHLTEDTPKVNADIEKVNQNQAKRCTVIGGSGFLGQHMVEQLLARGYAVNVFDIQQGFDNPQVRFFLGDLCSRQDLYPALKGVNTVFHCASPPPSSNNKELFYRVNYIGTKNVIETCKEAGVQKLILTSSASVIFEGVDIKNGTEDLPYAMKPIDYYTETKILQERAVLGANDPEKNFLTTAIRPHGIFGPRDPQLVPILIEAARNGKMKFVIGNGKNLVDFTFVENVVHGHILAAEQLSRDSTLGGKAFHITNDEPIPFWTFLSRILTGLNYEAPKYHIPYWVAYYLALLLSLLVMVISPVIQLQPTFTPMRVALAGTFHYYSCERAKKAMGYQPLVTMDDAMERTVQSFRHLRRVK"}, "B7": {"name": "Protein numb homolog (protein, UniProt P49757-1 1-651)", "chain": "MNKLRQSFRRKKDVYVPEASRPHQWQTDEEGVRTGKCSFPVKYLGHVEVDESRGMHICEDAVKRLKAERKFFKGFFGKTGKKAVKAVLWVSADGLRVVDEKTKDLIVDQTIEKVSFCAPDRNFDRAFSYICRDGTTRRWICHCFMAVKDTGERLSHAVGCAFAACLERKQKREKECGVTATFDASRTTFTREGSFRVTTATEQAEREEIMKQMQDAKKAETDKIVVGSSVAPGNTAPSPSSPTSPTSDATTSLEMNNPHAIPRRHAPIEQLARQGSFRGFPALSQKMSPFKRQLSLRINELPSTMQRKTDFPIKNAVPEVEGEAESISSLCSQITNAFSTPEDPFSSAPMTKPVTVVAPQSPTFQANGTDSAFHVLAKPAHTALAPVAMPVRETNPWAHAPDAANKEIAATCSGTEWGQSSGAASPGLFQAGHRRTPSEADRWLEEVSKSVRAQQPQASAAPLQPVLQPPPPTAISQPASPFQGNAFLTSQPVPVGVVPALQPAFVPAQSYPVANGMPYPAPNVPVVGITPSQMVANVFGTAGHPQAAHPHQSPSLVRQQTFPHYEASSATTSPFFKPPAQHLNGSAAFNGVDDGRLASADRHTEVPTGTCPVDPFEAQWAALENKSKQRTNPSPTNPFSSDLQKTFEIEL"}, "B8": {"name": "Numb-like protein (protein, UniProt Q9Y6R0 1-609)", "chain": "MSRSAAASGGPRRPERHLPPAPCGAPGPPETCRTEPDGAGTMNKLRQSLRRRKPAYVPEASRPHQWQADEDAVRKGTCSFPVRYLGHVEVEESRGMHVCEDAVKKLKAMGRKSVKSVLWVSADGLRVVDDKTKDLLVDQTIEKVSFCAPDRNLDKAFSYICRDGTTRRWICHCFLALKDSGERLSHAVGCAFAACLERKQRREKECGVTAAFDASRTSFAREGSFRLSGGGRPAEREAPDKKKAEAAAAPTVAPGPAQPGHVSPTPATTSPGEKGEAGTPVAAGTTAAAIPRRHAPLEQLVRQGSFRGFPALSQKNSPFKRQLSLRLNELPSTLQRRTDFQVKGTVPEMEPPGAGDSDSINALCTQISSSFASAGAPAPGPPPATTGTSAWGEPSVPPAAAFQPGHKRTPSEAERWLEEVSQVAKAQQQQQQQQQQQQQQQQQQQQAASVAPVPTMPPALQPFPAPVGPFDAAPAQVAVFLPPPHMQPPFVPAYPGLGYPPMPRVPVVGITPSQMVANAFCSAAQLQPQPATLLGKAGAFPPPAIPSAPGSQARPRPNGAPWPPEPAPAPAPELDPFEAQWAALEGKATVEKPSNPFSGDLQKTFEIEL"}, "B9": {"name": "Occludin (protein, UniProt Q16625-1 1-522)", "chain": "MSSRPLESPPPYRPDEFKPNHYAPSNDIYGGEMHVRPMLSQPAYSFYPEDEILHFYKWTSPPGVIRILSMLIIVMCIAIFACVASTLAWDRGYGTSLLGGSVGYPYGGSGFGSYGSGYGYGYGYGYGYGGYTDPRAAKGFMLAMAAFCFIAALVIFVTSVIRSEMSRTRRYYLSVIIVSAILGIMVFIATIVYIMGVNPTAQSSGSLYGSQIYALCNQFYTPAATGLYVDQYLYHYCVVDPQEAIAIVLGFMIIVAFALIIFFAVKTRRKMDRYDKSNILWDKEHIYDEQPPNVEEWVKNVSAGTQDVPSPPSDYVERVDSPMAYSSNGKVNDKRFYPESSYKSTPVPEVVQELPLTSPVDDFRQPRYSSGGNFETPSKRAPAKGRAGRSKRTEQDHYETDYTTGGESCDELEEDWIREYPPITSDQQRQLYKRNFDTGLQEYKSLQSELDEINKELSRLDKELDDYREESEEYMAAADEYNRLKQVKGSADYKSKKNHCKQLKSKLSHIKKMVGDYDRQKT"}}, "note": "No constants are given. Whether binding was seen depends on the method and setting. Binding seen in cells or lysates may run through a third protein. These calls come from enrichment with a bait or labelling near it, and not all partners need be listed.", "data": [{"target": "LRRC8A-BirA*-HA fusion protein (human) (UniProt Q8IWT6)", "test": "proximity labelling; BioID: HEK293 cells stably expressing LRRC8A-BirA*-HA (two clones), 50 uM biotin 24 h, RIPA lysis, streptavidin bead pull-down of biotinylated proteins, TMT labelling and LC-MS/MS; hits: FDR <= 0.05 and fold change >= 2 against the no-biotin control", "values": [{"binder": "B1", "binding": "binds"}, {"binder": "B2", "binding": "binds"}, {"binder": "B3", "binding": "binds"}, {"binder": "B4", "binding": "binds"}, {"binder": "B5", "binding": "binds"}, {"binder": "B6", "binding": "binds"}, {"binder": "B7", "binding": "binds"}, {"binder": "B8", "binding": "binds"}, {"binder": "B9", "binding": "binds"}]}]}
